Measured values as given in ChEMBL document CHEMBL2021799, “Exploring the interplay of physicochemical properties, membrane permeability and giardicidal activity of some benzimidazole derivatives” (Eur J Med Chem, 2012).
In brackets after ≈: the same amount, converted by molar mass.

Tests used:
[1] = Lipophilicity, logkw of the compound by RP-HPLC analysis
[2] = Aqueous solubility of the compound; conditions: buffer
[3] = Distribution coefficient, log D of the compound; conditions: octanol/water

**Q.** For `CSc1nc2ccc(Cl)cc2n1C`, which logKw [1] is on record?
**A.** 2.49

**Q.** And the solubility [2]?
**A.** 0.0142 µg/mL (≈ 0.0668 µM)

**Q.** What about the logD [3] of the same molecule?
**A.** 4.15

**Q.** For `Cc1nc2ccc(Cl)cc2n1C`, which solubility [2] is on record?
**A.** 126 µg/mL (≈ 696 µM)

**Q.** What about the logD [3] of the same molecule?
**A.** 2.49
